Test system: PPARgamma:RXRalpha heterodimer (cells)
Assay: activity in cells
Conditions: COS1 reporter; further elevated by 1 uM rosiglitazone; protein in cells

GTGGTGGAGGGCAGAGGGCAATGGCTTGGAAGGCTGTGAGTCACTTAACCTTTAACCTTGTGCAAATCAGTCTCCTTTGCACTGGTGACTTATCTGTAAAATGAGGAAAGTCATCTAACATCTGACCTAATGAGGAAGGTCCTTTTTCTC (double strand) [ABCG2 enhancer 150 bp (-3946/-3796)]
activity on this sequence: active
